Laboratory results: paper doi:10.1101/2021.01.25.428042
These are yes or no findings as the source states them, for the method shown. In cells and extracts the contact can be indirect. Some results given as binding are weak or reduced against the parent protein; the word gives no strength. For some assays here: Where a sequence is shown, tags or fusion partners need not be part of it.

T1: RIG-I (endogenous) (human (endogenous in HEK293 and A549)) (UniProt O95786)
T1 sequence: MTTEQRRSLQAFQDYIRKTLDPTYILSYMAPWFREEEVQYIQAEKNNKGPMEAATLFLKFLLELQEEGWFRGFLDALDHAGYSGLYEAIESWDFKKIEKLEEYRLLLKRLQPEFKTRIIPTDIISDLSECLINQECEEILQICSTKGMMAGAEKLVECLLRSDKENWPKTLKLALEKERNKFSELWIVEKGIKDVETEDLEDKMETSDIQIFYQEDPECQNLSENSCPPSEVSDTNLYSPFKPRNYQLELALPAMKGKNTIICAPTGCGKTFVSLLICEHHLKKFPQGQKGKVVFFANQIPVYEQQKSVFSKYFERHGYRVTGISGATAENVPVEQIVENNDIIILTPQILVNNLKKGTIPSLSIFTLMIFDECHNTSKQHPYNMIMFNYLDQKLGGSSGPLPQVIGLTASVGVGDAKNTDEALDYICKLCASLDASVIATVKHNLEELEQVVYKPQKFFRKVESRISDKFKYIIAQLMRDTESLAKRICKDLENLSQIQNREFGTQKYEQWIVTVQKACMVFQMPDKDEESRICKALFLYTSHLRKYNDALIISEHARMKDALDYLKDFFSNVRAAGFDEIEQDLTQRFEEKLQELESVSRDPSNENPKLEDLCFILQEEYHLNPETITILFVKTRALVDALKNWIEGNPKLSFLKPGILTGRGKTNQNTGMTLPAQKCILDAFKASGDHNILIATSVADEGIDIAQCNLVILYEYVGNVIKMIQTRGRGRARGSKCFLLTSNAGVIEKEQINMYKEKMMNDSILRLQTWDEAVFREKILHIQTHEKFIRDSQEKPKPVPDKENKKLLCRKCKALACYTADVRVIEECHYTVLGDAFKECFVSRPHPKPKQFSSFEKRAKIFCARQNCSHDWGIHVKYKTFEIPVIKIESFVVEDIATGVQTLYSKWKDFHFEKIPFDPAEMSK

T2: FLAG-tagged LGP2 (human (cDNA library from HEK293 cells)) (UniProt Q96C10)
T2 sequence: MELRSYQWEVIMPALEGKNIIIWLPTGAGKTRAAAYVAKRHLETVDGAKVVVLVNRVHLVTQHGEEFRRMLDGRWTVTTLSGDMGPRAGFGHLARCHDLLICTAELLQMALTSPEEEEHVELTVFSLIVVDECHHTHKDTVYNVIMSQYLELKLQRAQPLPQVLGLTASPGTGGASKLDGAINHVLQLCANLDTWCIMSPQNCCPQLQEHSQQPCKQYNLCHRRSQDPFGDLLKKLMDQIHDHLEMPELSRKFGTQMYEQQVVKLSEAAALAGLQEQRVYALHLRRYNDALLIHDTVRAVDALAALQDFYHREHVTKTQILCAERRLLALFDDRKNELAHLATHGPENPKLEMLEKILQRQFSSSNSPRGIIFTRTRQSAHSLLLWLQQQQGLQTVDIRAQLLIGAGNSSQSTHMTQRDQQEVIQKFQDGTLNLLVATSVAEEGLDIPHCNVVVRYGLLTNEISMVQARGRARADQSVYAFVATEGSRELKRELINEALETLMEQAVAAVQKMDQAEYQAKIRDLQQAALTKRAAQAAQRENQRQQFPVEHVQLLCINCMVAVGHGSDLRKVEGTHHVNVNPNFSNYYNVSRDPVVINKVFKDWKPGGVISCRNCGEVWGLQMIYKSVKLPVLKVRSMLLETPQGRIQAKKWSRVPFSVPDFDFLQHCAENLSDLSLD


Key:
[1] = target: T1, RIG-I (endogenous) (human (endogenous in HEK293 and A549)); assay: proximity ligation
[2] = target: T2, FLAG-tagged LGP2 (human (cDNA library from HEK293 cells)); assay: proximity ligation

| Binder | binding [1] | binding [2] |
| --- | --- | --- |
| RIPLET (endogenous) (protein, UniProt Q8IUD6 1-432) MAGLGLGSAVPVWLAEDDLGCIICQGLLDWPATLPCGHSFCRHCLEALWGARDARRWACPTCRQGAAQQPHLRKNTLLQDLADKYRRAAREIQAGSDPAHCPCPGSSSLSSAAARPRRRPELQRVAVEKSITEVAQELTELVEHLVDIVRSLQNQRPLSESGPDNELSILGKAFSSGVDLSMASPKLVTSDTAAGKIRDILHDLEEIQEKLQESVTWKEAPEAQMQGELLEAPSSSSCPLPDQSHPALRRASRFAQWAIHPTFNLKSLSCSLEVSKDSRTVTVSHRPQPYRWSCERFSTSQVLCSQALSSGKHYWEVDTRNCSHWAVGVASWEMSRDQVLGRTMDSCCVEWKGTSQLSAWHMVKETVLGSDRPGVVGIWLNLEEGKLAFYSVDNQEKLLYECTISASSPLYPAFWLYGLHPGNYLIIKQVKV | binds | – |
| HA-tagged Riplet (protein, UniProt Q8IUD6 1-432) MAGLGLGSAVPVWLAEDDLGCIICQGLLDWPATLPCGHSFCRHCLEALWGARDARRWACPTCRQGAAQQPHLRKNTLLQDLADKYRRAAREIQAGSDPAHCPCPGSSSLSSAAARPRRRPELQRVAVEKSITEVAQELTELVEHLVDIVRSLQNQRPLSESGPDNELSILGKAFSSGVDLSMASPKLVTSDTAAGKIRDILHDLEEIQEKLQESVTWKEAPEAQMQGELLEAPSSSSCPLPDQSHPALRRASRFAQWAIHPTFNLKSLSCSLEVSKDSRTVTVSHRPQPYRWSCERFSTSQVLCSQALSSGKHYWEVDTRNCSHWAVGVASWEMSRDQVLGRTMDSCCVEWKGTSQLSAWHMVKETVLGSDRPGVVGIWLNLEEGKLAFYSVDNQEKLLYECTISASSPLYPAFWLYGLHPGNYLIIKQVKV | – | binds |
